Data taken from PubChem BioAssay AID248 (DTP/NCI, 2004).
The list does not hold the whole screen: it gathers tests that were run many times, whatever their T/C, doses with no T/C, and many T/C values between a quarter and a half above the control. Other doses and runs of a compound stand elsewhere. T/C gives the treated animals as a percentage of the vehicle group. Some entries give survivors of the animals treated and no T/C: the source holds a T/C of zero for them, seemingly a mark for toxic or unscored doses. Some doses without a T/C left all or most animals alive at the check, yet need not have been tolerated: the source hardly ever lists a survival T/C far under the control, and the zero likely stands for such cases as well. Survivors were counted at the toxicity check, usually on the fifth day, unless a day is given; later deaths do not show. Schedules are NCI's codes, taken here to give the interval after Q, in days (D) or hours (H), and the number of doses after X. Some entries were tested several times; their values stand side by side, smallest first. Some schedule codes hold Z or #, which are not explained here. For survival time, the PubChem record calls one and a half times the control and up active, and a quarter to a half above the control has no call in these data; cut-offs in other NCI protocols can differ.

Test system: L1210 leukemia ip in BDF1 mice, survival T/C
Experiment: NCI In Vivo Anticancer Drug Screen. Data for tumor model L1210 Leukemia (intraperitoneal) in B6D2F1 (BDF1) mice
Conditions: T/C endpoint: mean survival time, higher T/C = longer survival
[1] = dose: 400.0 mg/kg/injection, schedule: Q04DX003 (ip), vehicle: saline with Tween-80
[2] = dose: 400.0 mg/kg/injection, schedule: Q04DX002 (ip), vehicle: Klucel (hydroxypropylcellulose) (HPC)
[3] = dose: 100.0 mg/kg/injection, schedule: Q04DX002 (ip), vehicle: saline with Tween-80
[4] = dose: 400.0 mg/kg/injection, schedule: Q04DX002 (ip), vehicle: saline with Tween-80
[5] = dose: 100.0 mg/kg/injection, schedule: Q04DX002 (ip), vehicle: Klucel (hydroxypropylcellulose) (HPC)
[6] = dose: 100.0 mg/kg/injection, schedule: Q04DX003 (ip), vehicle: Klucel (hydroxypropylcellulose) (HPC)
[7] = dose: 200.0 mg/kg/injection, schedule: Q04DX003 (ip), vehicle: Klucel (hydroxypropylcellulose) (HPC)
[8] = dose: 400.0 mg/kg/injection, schedule: Q04DX003 (ip), vehicle: Klucel (hydroxypropylcellulose) (HPC)
[9] = dose: 200.0 mg/kg/injection, schedule: Q04DX003 (ip), vehicle: saline
[10] = dose: 400.0 mg/kg/injection, schedule: Q04DX003 (ip), vehicle: saline
[11] = dose: 400.0 mg/kg/injection, schedule: Q01DX009 (ip), vehicle: Klucel (hydroxypropylcellulose) (HPC)
[12] = dose: 100.0 mg/kg/injection, schedule: Q01DX001 (ip), vehicle: saline
[13] = dose: 400.0 mg/kg/injection, schedule: Q01DX001 (ip), vehicle: saline
[14] = dose: 200.0 mg/kg/injection, schedule: Q01DX001 (ip), vehicle: saline

CC[N+]([O-])(CC)CCNc1ccc(CO)c2sc3ccccc3c(=O)c12
survivor count (dose: 200.0 mg/kg/injection, schedule: Q01DX009 (ip), vehicle: saline): 6 of 6 | survivor count (dose: 400.0 mg/kg/injection, schedule: Q01DX009 (ip), vehicle: saline): 6 of 6

CCOC(=O)C(=CN(C(C)C)C(C)C)C(=O)OCC
survivor count [1]: 2 of 6

NC(CSS(=O)(=O)O)=NCc1ccncc1
T/C (dose: 100.0 mg/kg/injection, schedule: Q04DX002 (ip), vehicle: saline): 130 % of control | survivor count (dose: 200.0 mg/kg/injection, schedule: Q04DX002 (ip), vehicle: saline): 0 of 3 and 2 of 3 | survivor count (dose: 400.0 mg/kg/injection, schedule: Q04DX002 (ip), vehicle: saline): 0 of 3

COc1cc2c(cc1OC)C1CCC3=C(O)CCC3=[N+]1CC2 (configuration not stated)
survivor count [2]: 3 of 3

Cc1c[n+]([O-])ccc1N=NN(C)c1ccccc1C
survivor count [3]: 3 of 3 | survivor count [4]: 0 of 3

Cc1c2cnccc2c(C)c2c1c1ccccc1n2CCCl
T/C (dose: 125.0 mg/kg/injection, schedule: Q01DX009 (ip), vehicle: saline with Tween-80): 140 % of control | T/C (dose: 250.0 mg/kg/injection, schedule: Q01DX009 (ip), vehicle: saline with Tween-80): 140 % of control

N#Cc1ccc(/C=C\c2ccc(C#N)cc2)cc1
survivor count [5]: 3 of 3 | survivor count [2]: 3 of 3

O=S(=O)([O-])NC1CCCCC1.O=S(=O)([O-])NC1CCCCC1.[Hg+2].[Hg+2].[Hg+2].[O-2].[O-2]
survivor count [6]: 1 of 6 | survivor count [7]: 0 of 6 | survivor count [8]: 0 of 6

CCOC(=O)/C(N=O)=C(/O)c1ccncc1
survivor count [8]: 6 of 6

NC(N)=N/N=C/c1ccc2c(c1)CCC2
survivor count (dose: 100.0 mg/kg/injection, schedule: Q04DX003 (ip), vehicle: saline): 0 of 6 | survivor count [9]: 0 of 6 | survivor count [10]: 0 of 6

CN1C(=O)N(C)C(=O)C(Cc2ccccc2)(Cc2ccccc2)C1=O
survivor count (dose: 40.0 mg/kg/injection, schedule: Q01DX001 (ip), vehicle: saline): 3 of 6 | survivor count (dose: 75.0 mg/kg/injection, schedule: Q01DX001 (ip), vehicle: saline): 0 of 6 | survivor count (dose: 150.0 mg/kg/injection, schedule: Q01DX001 (ip), vehicle: saline): 0 of 6 | survivor count (dose: 300.0 mg/kg/injection, schedule: Q01DX001 (ip), vehicle: saline): 0 of 6

COC(=O)/C=C/NC(=O)c1ccccc1C(=O)OC
survivor count (dose: 100.0 mg/kg/injection, schedule: Q01DX009 (ip), vehicle: Klucel (hydroxypropylcellulose) (HPC)): 6 of 6 | survivor count (dose: 200.0 mg/kg/injection, schedule: Q01DX009 (ip), vehicle: Klucel (hydroxypropylcellulose) (HPC)): 6 of 6 | survivor count [11]: 6 of 6

Cc1nc(N)nc(N)c1-c1ccc(Cl)c(Cl)c1
T/C (dose: 2.0 mg/kg/injection, schedule: Q01DX009 (ip), vehicle: saline with Tween-80): 125 % of control | T/C (dose: 2.0 mg/kg/injection, schedule: Q01DX010 (sc), vehicle: other): 139 % of control | T/C (dose: 4.0 mg/kg/injection, schedule: Q01DX009 (ip), vehicle: saline with Tween-80): 127 % of control | T/C (dose: 4.0 mg/kg/injection, schedule: Q04DX009 (ip), vehicle: Klucel (hydroxypropylcellulose) (HPC)): 126 % of control | T/C (dose: 5.0 mg/kg/injection, schedule: Q01DX010 (sc), vehicle: other): 131 % of control | T/C (dose: 8.4 mg/kg/injection, schedule: Q01DX009 (ip), vehicle: saline): 127 % of control | T/C (dose: 50.0 mg/kg/injection, schedule: Q04DX003 (ip), vehicle: saline): 132 % of control | survivor count [12]: 5 of 6

O=C(O)COc1c(Cl)cc(Cl)c2cccnc12
survivor count (dose: 400.0 mg/kg/injection, schedule: Q01DX001 (ip), vehicle: carboxymethylcellulose (CMC)): 1 of 4

CC(O)(C(F)(F)F)C(C)(O)C(F)(F)F (configuration not stated)
survivor count [4]: 0 of 3

ClCCOCOCCCl
survivor count [6]: 6 of 6 | survivor count [7]: 6 of 6 | survivor count [8]: 0 of 6

C[N+](C)(CCCCOCCCC[N+](C)(C)Cc1ccc([N+](=O)[O-])cc1)Cc1ccc([N+](=O)[O-])cc1
survivor count (dose: 6.0 mg/kg/injection, schedule: Q04DX003 (ip), vehicle: saline with Tween-80): 0 of 6 | survivor count (dose: 12.5 mg/kg/injection, schedule: Q04DX003 (ip), vehicle: saline with Tween-80): 0 of 6 | survivor count (dose: 25.0 mg/kg/injection, schedule: Q04DX003 (ip), vehicle: saline with Tween-80): 0 of 6 | survivor count (dose: 50.0 mg/kg/injection, schedule: Q04DX003 (ip), vehicle: saline with Tween-80): 0 of 6 | survivor count (dose: 100.0 mg/kg/injection, schedule: Q04DX003 (ip), vehicle: saline with Tween-80): 0 of 6 | survivor count (dose: 200.0 mg/kg/injection, schedule: Q04DX003 (ip), vehicle: saline with Tween-80): 0 of 6 | survivor count [1]: 0 of 6

O=C1C=C(Nc2ccccc2)C(=O)N1c1ccccc1
survivor count [13]: 6 of 6

C1CC2CCC1CNC2
survivor count [9]: 1 of 6

COc1cc2c(cc1OC(C)=O)C(OC(C)=O)CCCC2 (configuration not stated)
survivor count (dose: 80.0 mg/kg/injection, schedule: Q01DX001 (ip), vehicle: saline): 2 of 4 | survivor count [12]: 1 of 4 | survivor count [14]: 1 of 4 | survivor count [13]: 1 of 4

O=C(c1ccccc1[N+](=O)[O-])C(Br)C(Br)c1cccc2ccccc12 (configuration not stated)
survivor count [3]: 3 of 3 | survivor count [4]: 3 of 3 and 6 of 6

CN=C(N)c1ccc(NC(=O)c2ccc(C(=O)Nc3ccc(C(N)=NC)cc3)c(Cl)c2)cc1
T/C (dose: 3.75 mg/kg/injection, schedule: Q01DX Z (ip), vehicle: saline): 135 % of control | T/C (dose: 15.0 mg/kg/injection, schedule: Q01DX Z (ip), vehicle: other): 144 % of control | survivor count (dose: 30.0 mg/kg/injection, schedule: Q01DX Z (ip), vehicle: other): 5 of 6 | survivor count (dose: 60.0 mg/kg/injection, schedule: Q01DX Z (ip), vehicle: other): 0 of 6 | survivor count (dose: 120.0 mg/kg/injection, schedule: Q01DX Z (ip), vehicle: other): 0 of 6

CCOC(=O)C(Br)C(Br)c1cccc([N+](=O)[O-])c1 (configuration not stated)
survivor count (dose: 200.0 mg/kg/injection, schedule: Q01DX009 (ip), vehicle: other): 3 of 6 | survivor count (dose: 400.0 mg/kg/injection, schedule: Q01DX009 (ip), vehicle: other): 1 of 6

CC(CCCOS(C)(=O)=O)OS(C)(=O)=O (configuration not stated)
survivor count [5]: 3 of 3 | survivor count (dose: 200.0 mg/kg/injection, schedule: Q04DX002 (ip), vehicle: Klucel (hydroxypropylcellulose) (HPC)): 1 of 3 | survivor count [2]: 0 of 3

CCCCC(/C=C1/CCCCC1=O)CC (configuration not stated)
survivor count [11]: 6 of 6

Cc1ncc(CO)c(/C=N/OCc2ccc(OCc3ccccc3)cc2)c1O
survivor count [1]: 3 of 6

Cc1ccc[nH]c1=O
survivor count [10]: 1 of 6

CCC1C2Cc3ccc(O)cc3C1(CC)CCN2C (configuration not stated)
survivor count [14]: 0 of 4 | survivor count [13]: 0 of 4

CC1CCCCN1Cc1ccccc1COC(=O)c1ccc([N+](=O)[O-])cc1Cl (configuration not stated)
survivor count [4]: 1 of 3

CCc1nnc2cc(C)ccn12
survivor count (dose: 400.0 mg/kg/injection, schedule: Q04DX003 (ip), vehicle: other): 2 of 6
